Measurements as given in article PMC11452732.
Results are given in words; binding and its absence hold for the method and conditions named. Binding seen in cells or lysates may run through a third protein. Some binding calls cover weakened binding; strength is not graded here.

The chains behind the UniProt entries cited, without tags or fusion partners.
UniProt P09874: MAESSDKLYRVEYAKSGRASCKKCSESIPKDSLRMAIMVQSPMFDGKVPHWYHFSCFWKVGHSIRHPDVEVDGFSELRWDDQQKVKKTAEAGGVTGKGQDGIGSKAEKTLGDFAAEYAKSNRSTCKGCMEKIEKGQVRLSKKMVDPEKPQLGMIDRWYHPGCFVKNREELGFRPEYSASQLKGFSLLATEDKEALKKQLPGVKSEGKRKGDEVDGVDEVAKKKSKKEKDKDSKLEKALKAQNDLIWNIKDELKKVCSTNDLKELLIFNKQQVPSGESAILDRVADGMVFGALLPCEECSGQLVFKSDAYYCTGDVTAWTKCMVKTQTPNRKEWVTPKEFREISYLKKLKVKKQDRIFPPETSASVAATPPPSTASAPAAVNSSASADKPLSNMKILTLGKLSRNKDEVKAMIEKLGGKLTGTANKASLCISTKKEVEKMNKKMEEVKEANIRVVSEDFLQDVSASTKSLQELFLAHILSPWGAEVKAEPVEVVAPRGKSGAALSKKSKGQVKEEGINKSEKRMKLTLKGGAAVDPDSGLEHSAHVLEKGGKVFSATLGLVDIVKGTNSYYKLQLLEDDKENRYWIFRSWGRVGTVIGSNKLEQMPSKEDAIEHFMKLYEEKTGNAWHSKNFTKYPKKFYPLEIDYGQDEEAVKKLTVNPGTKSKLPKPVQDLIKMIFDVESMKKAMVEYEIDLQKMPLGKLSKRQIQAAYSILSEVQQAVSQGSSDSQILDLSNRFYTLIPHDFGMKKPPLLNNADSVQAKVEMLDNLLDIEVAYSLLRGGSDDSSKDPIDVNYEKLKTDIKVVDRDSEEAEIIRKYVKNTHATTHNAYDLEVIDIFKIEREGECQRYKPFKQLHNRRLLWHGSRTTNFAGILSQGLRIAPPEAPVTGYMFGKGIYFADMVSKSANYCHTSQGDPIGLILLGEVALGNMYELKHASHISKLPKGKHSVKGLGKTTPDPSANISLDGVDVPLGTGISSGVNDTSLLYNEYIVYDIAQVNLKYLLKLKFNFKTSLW
UniProt P06748: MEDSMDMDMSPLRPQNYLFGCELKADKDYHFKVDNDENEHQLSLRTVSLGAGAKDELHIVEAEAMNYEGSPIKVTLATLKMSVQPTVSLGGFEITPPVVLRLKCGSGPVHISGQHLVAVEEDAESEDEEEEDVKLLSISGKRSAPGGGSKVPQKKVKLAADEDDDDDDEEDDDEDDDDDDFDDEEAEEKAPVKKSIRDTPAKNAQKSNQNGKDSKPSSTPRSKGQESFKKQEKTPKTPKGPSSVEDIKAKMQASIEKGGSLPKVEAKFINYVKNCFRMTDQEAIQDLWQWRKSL

Target: poly ADP‐ribose polymerase‐1 (PARP1) (human (endogenous in KYSE-150 and TE-1)) (UniProt P09874)
Assay: co-IP; endogenous proteins in lysates of KYSE-150 and TE-1 cells (IP lysis solution with PMSF, protease and phosphatase inhibitors); antibody overnight at 4°C, Protein A/G magnetic beads 3 h at 4°C, western blot; also lysates pretreated with RNase A or recombinant RNase inhibitor (weaker with RNase A) and LNCAROD knockout KYSE-150 cells (attenuated)

binding: binds
Substance: nucleophosmin 1 (NPM1) (from UniProt P06748 1-294)
